Taken from: PubChem BioAssay AID743121 (NCATS, 2013)
Purpose: 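Partners whose loss is lethal together with topoisomerase I blockade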 (primary screen). Cells: MDA-MB-231 cells, a human breast cancer line. Reagent: single siRNA against human genes, 20 nM siRNA (0.8 pmol per well). Timing: 120 h (drug added 48 h after transfection, read 72 h later). Conditions: camptothecin 20 nM (about EC30) for 72 h; vehicle 0.1% DMSO in parallel plates. Measurement: 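CellTiter-Glo ATP signal, scaled to control siRNA as percent viability; sensitisation given as log2 of untreated divided by camptothecin-treated viability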. Reading the numbers: log2 vehicle/camptothecin viability: higher = stronger sensitisation to camptothecin; viability with camptothecin and viability without drug: higher = more viable cells. Call rule: 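Active genes have an RSA gene-level p-value below 0.001, computed from the ratios of their separate siRNAs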.
This is a random part of about 26,000 reagents tested. 167 of them (0.63%) count as active. 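Calls are per gene from RSA p-values that are not deposited; an individual active-marked siRNA can sensitise only weakly.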 Unmarked entries are inactive. Reagents against one gene are numbered here.

no.	Gene	reagent no.	log2 vehicle/camptothecin viability	viability with camptothecin (% of control)	viability without drug (% of control)
1	FBXL12 (F-box and leucine rich repeat protein 12)	1	-0.208	86.9	75.2
2	FBXL12 (F-box and leucine rich repeat protein 12)	2	-0.229	86.6	73.9
3	FBXL12 (F-box and leucine rich repeat protein 12)	3	0.367	29.4	37.9
4	FBXL12 (F-box and leucine rich repeat protein 12)	4	-0.139	99.4	90.3
5	NEUROG1 (neurogenin 1)	1	0.21	60.5	70
6	NEUROG1 (neurogenin 1)	2	-0.513	71	49.8
7	NEUROG1 (neurogenin 1)	3	0.06	117	122
8	NEUROG1 (neurogenin 1)	4	0.724	35.8	59.2
9	STYK1 (STY kinase 1)	1	0.944	33.2	63.8
10	STYK1 (STY kinase 1)	2	-0.399	110	83.7
11	STYK1 (STY kinase 1)	3	0.187	71	80.9
12	STYK1 (STY kinase 1)	4	-0.411	108	81
13	EVL (Enah/Vasp-like)	1	-0.109	97.8	90.7
14	EVL (Enah/Vasp-like)	2	-0.291	60.2	49.2
15	EVL (Enah/Vasp-like)	3	0.0132	52.6	53.1
16	EVL (Enah/Vasp-like)	4	0.28	19.6	23.8
17	BUB3 (BUB3 mitotic checkpoint protein)	1	-0.298	39.5	32.2
18	BUB3 (BUB3 mitotic checkpoint protein)	2	-0.268	64.5	53.6
19	BUB3 (BUB3 mitotic checkpoint protein)	3	-0.454	36.9	26.9
20	BUB3 (BUB3 mitotic checkpoint protein)	4	-0.283	87.7	72.1
21	RUNX1 (RUNX family transcription factor 1)	1	-0.0733	110	104
22	RUNX1 (RUNX family transcription factor 1)	2	0.624	5.85	9.03
23	RUNX1 (RUNX family transcription factor 1)	3	0.272	77.9	94.1
24	RUNX1 (RUNX family transcription factor 1)	4	0.0381	88.5	90.9
25	SLC24A4	1	-0.393	54.3	41.3
26	SLC24A4	2	-0.422	82.7	61.7
27	SLC24A4	3	-0.116	64.7	59.8
28	SLC24A4	4	0.147	71.3	79

Next part (5 carried over from the part before).
no.	Gene	reagent no.	log2 vehicle/camptothecin viability	viability with camptothecin (% of control)	viability without drug (% of control)
24	RUNX1 (RUNX family transcription factor 1)	4	0.0381	88.5	90.9
25	SLC24A4	1	-0.393	54.3	41.3
26	SLC24A4	2	-0.422	82.7	61.7
27	SLC24A4	3	-0.116	64.7	59.8
28	SLC24A4	4	0.147	71.3	79
29	HR (HR lysine demethylase and nuclear receptor corepressor)	1	-0.443	86.6	63.7
30	HR (HR lysine demethylase and nuclear receptor corepressor)	2	-0.0431	88.9	86.3
31	HR (HR lysine demethylase and nuclear receptor corepressor)	3	0.185	48.3	54.9
32	RIOX1 (ribosomal oxygenase 1)	1	-0.59	68.7	45.6
33	RIOX1 (ribosomal oxygenase 1)	2	-0.231	71.2	60.6
34	RIOX1 (ribosomal oxygenase 1)	3	0.171	97.1	109
35	RIOX1 (ribosomal oxygenase 1)	4	0.305	36	44.5
36	DOK2 (docking protein 2)	1	-0.443	81.1	59.6
37	DOK2 (docking protein 2)	2	0.219	34.3	39.9
38	DOK2 (docking protein 2)	3	-0.115	93.6	86.4
39	DOK2 (docking protein 2)	4	1.3	16.7	41.3
40	IL20RB (interleukin 20 receptor subunit beta)	1	-0.0828	115	108
41	IL20RB (interleukin 20 receptor subunit beta)	2	0.137	52.4	57.6
42	IL20RB (interleukin 20 receptor subunit beta)	3	0.501	19.1	27
43	IL20RB (interleukin 20 receptor subunit beta)	4	-0.463	77.1	55.9
44	OR6C3 (olfactory receptor family 6 subfamily C member 3)	1	-0.354	75.3	59
45	OR6C3 (olfactory receptor family 6 subfamily C member 3)	2	-0.0441	97.2	94.3
46	OR6C3 (olfactory receptor family 6 subfamily C member 3)	3	-0.321	77.7	62.2
47	OR6C3 (olfactory receptor family 6 subfamily C member 3)	4	0.766	31.5	53.6
48	CES1 (carboxylesterase 1)	1	-0.0999	80.3	75
49	CES1 (carboxylesterase 1)	2	-0.086	98.5	92.8
50	CES1 (carboxylesterase 1)	3	0.341	44.5	56.4
51	CES1 (carboxylesterase 1)	4	1.13	37.3	81.4
52	CES1 (carboxylesterase 1)	5	-0.412	64	48.1
53	CES1 (carboxylesterase 1)	6	-0.00527	37.6	37.5
54	CES1 (carboxylesterase 1)	7	0.0655	82.8	86.7
55	NECTIN3 (nectin cell adhesion molecule 3)	1	-0.184	94.2	82.9
56	NECTIN3 (nectin cell adhesion molecule 3)	2	-0.153	56.9	51.1
57	NECTIN3 (nectin cell adhesion molecule 3)	3	-0.289	80.5	65.9
58	CHRNB3 (cholinergic receptor nicotinic beta 3 subunit)	1	-0.0186	51.8	51.1
59	CHRNB3 (cholinergic receptor nicotinic beta 3 subunit)	2	-0.231	105	89.8
60	CHRNB3 (cholinergic receptor nicotinic beta 3 subunit)	3	-0.233	77.6	66.1
61	CHRNB3 (cholinergic receptor nicotinic beta 3 subunit)	4	-0.199	75	65.3
62	MAP2K6 (mitogen-activated protein kinase kinase 6)	1	-0.113	80.3	74.2
63	MAP2K6 (mitogen-activated protein kinase kinase 6)	2	-0.558	98.5	66.9
64	MAP2K6 (mitogen-activated protein kinase kinase 6)	3	-0.18	115	101
65	MAP2K6 (mitogen-activated protein kinase kinase 6)	4	-0.129	111	101
66	UBE2G2 (ubiquitin conjugating enzyme E2 G2)	1	-0.0559	112	108
67	UBE2G2 (ubiquitin conjugating enzyme E2 G2)	2	-0.106	94	87.3
68	UBE2G2 (ubiquitin conjugating enzyme E2 G2)	3	0.0266	92.4	94.1
69	UBE2G2 (ubiquitin conjugating enzyme E2 G2)	4	-0.285	84.6	69.4
